{"source": "paper PMC12631912", "about": "(Advanced Science, 2025)", "test": "peptide made by a vendor", "conditions": "whole synthesis"}
{"substance": "cyclic RGDyK, sequence Arg‐Gly‐Asp‐D‐Phe‐Lys", "values": [{"measurement": "purity (crude or final not stated)", "result": 95.71, "unit": "%"}]}
